Drawing on US20130295106A1, this text covers binding for 17 molecules.

Numbering of substitutions follows the chain as printed. These are yes or no findings as the source states them, for the method shown. Some entries that bind do so weakly or less than the wild type. Sequences can lack the tags named with a protein.

For assay [1], the target named is T1, soluble FZD8-Fc containing the Fri domain (amino acids 1-157 of FZD8 linked in-frame to human IgG1 Fc) (human) (UniProt Q9H461).
T1 sequence: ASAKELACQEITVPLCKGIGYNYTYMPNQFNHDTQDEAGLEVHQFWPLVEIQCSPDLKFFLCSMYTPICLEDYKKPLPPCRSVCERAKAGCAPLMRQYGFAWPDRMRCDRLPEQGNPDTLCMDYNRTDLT
Kind of assay: phage ELISA on FZD8-Fc. For orientation: An ELISA detects its analyte on a solid surface through an enzyme-linked reagent.

Assay [2] deals with T2, FZD8-Fc variant Mut2 (substitution at position 75 in the cleft) (human) (UniProt Q9H461).
T2 sequence: T1 sequence with L48S
In words: phage ELISA on FZD8-Fc Mut2.

B1: clone 26 (peptide)
peptide: CPLSFPLYC
Turning to B1, the binding entry in assay [1] and in assay [2] was “binds” throughout.

B2: clone 28 (peptide)
peptide: DVWWLGSTWLKR
In the case of B2, in assay [1], the binding result is “binds”.

B3: clone 18 (peptide)
peptide: CPVNYPLYC
Turning to B3, the binding entry in assay [1] and in assay [2] was “binds” each time.

B4: clone 17 (peptide)
peptide: CPVAFPLYC
In the case of B4, the binding result in assay [1] and in assay [2] was “binds” each time.

B5: clone 4 (peptide)
peptide: CPLVWPLIC
Turning to B5, the binding result in assay [1] and in assay [2] was “binds” in each case.

B6: clone 27 (peptide)
peptide: CPLNWPLMC
On to B6, for which the binding entry in assay [1] and in assay [2] was “binds” in each case.

B7: clone 13 (peptide)
peptide: CPVKYPLVC
Consider B7, for which the binding entry in assay [1] and in assay [2] was “binds” each time.

B8: clone 12 (peptide)
peptide: TNLADIAHWISG
For the molecule B8, the binding entry in assay [1] and in assay [2] was “binds” each time.

B9: clone 8 (peptide)
peptide: CPLAWPLIC
For the molecule B9, the binding result in assay [1] and in assay [2] was “binds” each time.

B10: clone 25 (peptide)
peptide: CPLQYPLMC
Consider B10, for which the binding entry in assay [1] and in assay [2] was “binds” each time.

B11: clone 16 (peptide)
peptide: CPLAWPLIC
With B11, the binding entry in assay [1] and in assay [2] was “binds” throughout.

B12: clone 22 (peptide)
peptide: CPLTYPLYC
As to B12, the binding result in assay [1] and in assay [2] was “binds” each time.

B13: clone 6 (peptide)
peptide: FGNYLNDVRFLI
As for B13, the binding result in assay [1] and in assay [2] was “binds” throughout.

B14: clone 15 (peptide)
peptide: CPLRFPLFC
As to B14, the binding result in assay [1] and in assay [2] was “binds” in each case.

B15: clone 20 (peptide)
peptide: CPVKFPLYC
Turning to B15, the binding result in assay [1] and in assay [2] was “binds” throughout.

B16: clone 24 (peptide)
peptide: CPLRWPLMC
On to B16, for which the binding result in assay [1] and in assay [2] was “binds” throughout.

B17: clone 3 (peptide)
peptide: CPLYFPLYC
As to B17, the binding entry in assay [1] and in assay [2] was “binds” each time.
